# Library screening results

By UniProt entry, the sequences of proteins in these tests, tags left out.
UniProt E9BF75, entry or part of it: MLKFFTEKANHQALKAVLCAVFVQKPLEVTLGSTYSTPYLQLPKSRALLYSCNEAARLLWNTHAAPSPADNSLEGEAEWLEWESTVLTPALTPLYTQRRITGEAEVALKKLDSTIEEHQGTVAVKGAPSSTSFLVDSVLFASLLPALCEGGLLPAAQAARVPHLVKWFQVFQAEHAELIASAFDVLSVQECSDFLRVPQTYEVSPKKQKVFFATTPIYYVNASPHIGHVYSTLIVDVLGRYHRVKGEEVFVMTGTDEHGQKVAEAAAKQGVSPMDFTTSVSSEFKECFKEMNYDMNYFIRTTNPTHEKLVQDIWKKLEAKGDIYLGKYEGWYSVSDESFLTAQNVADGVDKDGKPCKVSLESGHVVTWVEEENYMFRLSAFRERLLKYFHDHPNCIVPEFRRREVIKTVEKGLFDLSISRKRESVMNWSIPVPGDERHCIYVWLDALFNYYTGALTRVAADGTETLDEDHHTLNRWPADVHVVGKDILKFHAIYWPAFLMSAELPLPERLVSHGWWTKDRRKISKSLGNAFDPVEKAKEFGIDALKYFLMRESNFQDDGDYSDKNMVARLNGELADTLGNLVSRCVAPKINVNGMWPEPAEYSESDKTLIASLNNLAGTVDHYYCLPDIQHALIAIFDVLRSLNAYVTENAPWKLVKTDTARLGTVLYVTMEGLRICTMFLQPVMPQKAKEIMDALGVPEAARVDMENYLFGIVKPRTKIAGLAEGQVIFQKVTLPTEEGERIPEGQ

Source: ChEMBL document CHEMBL3988442, “University of Dundee, Small-Polar-MMV Screening Library” (2021).

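Methionyl-tRNA synthetase (putative), Leishmania donovani (UniProt E9BF75). Primary screen of methionyl-tRNA synthetase; the read-out is not stated. The test concentration is not given. The values are filed as inhibition. Of about 68,000 compounds tested this way, about 24 (0.035%) reached 50% or more in at least one test.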

Results are percentages, as filed.
The controls that fix the scale are not given in the record; negative values are as filed.
The compounds are a random part of those screened.

For Cc1cccc(CN2C[C@H]3CC[C@@H]2CN(Cc2[nH]cnc2C)C3)n1 the result was 11.06%. O=C(Nc1ccc(F)cc1)C1CSCN1 (stereo not shown) gave 19.35%. CCc1nnc2n1CCN(C(=O)c1ccc3[nH]nnc3c1)C2 read 18.41%. Result for O=C(NCc1ccco1)C1CCCN1Cc1nc(-c2ccco2)no1 (stereo not shown) was 10.48%. For CCn1cc(Cl)c(C(=O)NCCOC)n1 the result was 10.3%. With COc1ccc(-c2cnc(NC(C)=O)[nH]2)cc1 the screen gave 14.29%.

Cc1ccc(CN(C)C(=O)CN2CCCC(Cn3cncn3)C2)o1 (stereo not shown) gave 18.75%. With CC(C)C(=O)N1CCCC12CCN(C(=O)c1ccno1)C2 (stereo not shown) the screen gave 11.68%. N#CC1(C(=O)N2C[C@H](Nc3ncccn3)[C@@H](C3CC3)C2)CCOCC1 gave 10.53%. With CC(C)NC(=O)NC[C@H]1OC[C@@H](NCc2cccs2)[C@@H]1O the screen gave 4.886%. CCCc1nc(Cn2c(=O)n(C)c3ccccc32)no1 gave 14.23%. Cn1ncc2c(N3CCCN(C(=O)c4ccsc4)CC3)ncnc21 gave 26.11%.

O=C(NCCCNC(=O)c1cccc(O)c1)Nc1ccc(F)cc1F gave 14.08%. Result for Cc1ccc(C(=O)N2CCC3(CCN(Cc4ccccn4)C3=O)C2)cn1 (stereo not shown) was -3.067%. O=C(C1=CCCC1)N1C[C@H](OCc2cccnc2)[C@H]2OCCC[C@H]21 gave 12.59%. CN(CCn1nc2ccccn2c1=O)CC(=O)NC1CC1 gave 10.56%. With CCCSc1nn(CCN(C)C)c2nc3sc(C)c(CC)c3c(=O)n12 the screen gave 18.7%. Result for CCc1nc(C)ncc1C(=O)N1CCCC(n2nc(C)nc2C)C1 (stereo not shown) was 2.454%.

CN(Cc1ccccn1)C1CCCN(Cc2noc(C3CC3)n2)C1 (stereo not shown) read 17.71%. O=C(Nc1ccc(-c2ccccc2)cc1)N1C[C@@H]2CNC[C@]2(C(=O)O)C1 read 16.62%. With CC(C)c1cc(CN(C)C(=O)CN2CCC(C(N)=O)CC2)no1 the screen gave 13.98%. For CC(=O)Nc1nc2c(s1)C(C)(C)Nc1ccccc1S2 the result was -1.699%. For O=C(Cc1ccsc1)N1CCC2(CCCN(CC3CCOCC3)C2)C1 (stereo not shown) the result was 18.21%. For CC(=O)NCc1cc(-c2cccs2)n(C2CCCC2)n1 the result was 8.401%.

CC(NCCN1CCN(C(=O)C2CCCC2)CC1)c1nccs1 (stereo not shown) gave 5.541%. For CSCCc1nc(C(C)C)nn1-c1ccncc1C the result was 14.44%. O=C(Cc1ccsc1)N1CCCC(CNS(=O)(=O)Cc2ccccc2)C1 (stereo not shown) read 10.14%. COCCN1CCN(CCS(=O)(=O)c2cccc(OC)c2)CC1 read 5.944%. Result for Cc1cc(S(=O)(=O)NCC(C)(O)CN(C)C)c(F)cc1F (stereo not shown) was 12.91%. With Cc1cc(C)n(-c2nc(NCCCO)c3c4c(sc3n2)CCCC4)n1 the screen gave 59.49%.

For CCOc1cc(=O)n2c(c1C(=O)OCc1ccc(F)cc1)CCCC2 the result was 6.021%. For CC(C)CNC(=O)c1cccc(CN2CCc3c(ncn3C)C2)c1 the result was 17.89%. With O=C(NC1CC1)[C@H]1C[C@@H]2CCN(Cc3ccc4c(c3)OCO4)C[C@@H]2O1 the screen gave 1.307%. For CC(C)c1cc(-c2cnn(C)c2C2CC2)c(C#N)c(N)n1 the result was 2.687%. Cc1cc(C)nc(N2CCN(C(=O)c3ccc(C4CCCO4)s3)CC2)n1 (stereo not shown) gave 4.982%. Result for Cc1nn(C)cc1-c1cc(C(=O)NCC(C)(C)c2cccc(F)c2)n[nH]1 was 10.59%.

With CCC(C)N(Cc1cccnc1)Cc1ccccc1Cn1cccn1 (stereo not shown) the screen gave 8.108%. Result for CCCn1nc(C)c(CNC(=O)C2COc3c(cccc3OC)C2)c1C (stereo not shown) was 12.5%. For COc1ccc(C)cc1-c1[nH]c2ccccc2c1C(=O)O the result was -18.86%. Result for CN(C(=O)NCCCN1CCCC1)C1CCN(c2ccccc2)C1=O (stereo not shown) was 10.2%. For O=C(Nc1ccc2c(c1)OCO2)N1CCN(CCc2ccccc2)CC1 the result was 8.065%. For Cc1nc(N)sc1C(=O)N1CCC(C(O)Cc2ccccc2)CC1 (stereo not shown) the result was 9.661%.

Result for Cc1nc(NC(=O)NCc2nc3cccc(C)c3n2C)oc1C was 4.032%. Result for CCc1ncc(CN2CCCC3(CCC(=O)N(CCC(C)C)C3)C2)cn1 (stereo not shown) was 2.892%. CCc1cc(N(C)Cc2[nH]nc3c2CCC3)nc(N2CCOCC2)n1 read 11.73%. Result for Cc1nn(C)c(C)c1NC(=O)CN1CCc2c(nc(C(C)C)n2C)C1 was 10.51%. CCc1nnc2n1CCN(Cc1ccc(C(=O)N3CCCC3)cc1)C2 gave 4.127%. With c1ccc(CO[C@@H]2C[C@H]3CN(c4ncccn4)CCN3C2)nc1 the screen gave 16.3%.

For CC(C)(C)CC(=O)N[C@@H]1CO[C@H](CNC(=O)c2ccncc2)[C@H]1O the result was 15.04%. Result for N#Cc1ccc(NCCCN2C(=O)COc3ccccc32)nc1 was 10.87%. With Cc1nc(N2CCOCC2)ncc1-c1cc(O)nc(N2CCCCC2)n1 the screen gave -43.47%.

The first 6 entries again:

Cc1cccc(CN2C[C@H]3CC[C@@H]2CN(Cc2[nH]cnc2C)C3)n1 read 11.06%.
O=C(Nc1ccc(F)cc1)C1CSCN1 (stereo not shown) read 19.35%.
CCc1nnc2n1CCN(C(=O)c1ccc3[nH]nnc3c1)C2 read 18.41%.
O=C(NCc1ccco1)C1CCCN1Cc1nc(-c2ccco2)no1 (stereo not shown) read 10.48%.
CCn1cc(Cl)c(C(=O)NCCOC)n1 read 10.3%.
COc1ccc(-c2cnc(NC(C)=O)[nH]2)cc1 read 14.29%.